Taken from: PubChem BioAssay AID1671195 (Yale University, 2021)

- Test: 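Regulators of LDL receptor activity judged by labelled LDL uptake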 (primary screen)
- System: human Huh7 hepatoma cells
- Reagents: siRNA pool against human genes, 18 nM
- Timing: about 2 to 2.5 days of knockdown, then 8 h LDL uptake
- Challenge: DiI-labelled LDL at 30 µg/ml for 8 h, in lipoprotein-deficient serum medium
- Read-out: 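Fluorescent LDL signal imaged in cells, scaled to the plate median, robust z-score for each replicate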
- Reading the numbers: robust z-score: higher = more LDL uptake after knockdown
- Hit rule: 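Active when two or more replicates show a robust z-score above 2 or below -2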
Here is an unselected part of about 22,000 deposited reagents. About 1,510 of them (6.9%) count as active. 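Active includes knockdowns raising or lowering LDL uptake; positive z-scores mean more uptake, negative mean less.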 Unmarked entries are inactive.

Silencing of ATRN resulted in: robust z-score, replicate 1 = -1.11; robust z-score, replicate 2 = 0.221; robust z-score, replicate 3 = -0.653. Silencing of PSMB3 resulted in: robust z-score, replicate 1 = -0.598; robust z-score, replicate 2 = -1.1; robust z-score, replicate 3 = -0.982. For WDFY3-AS2 the deposit lists robust z-score, replicate 1 = 0.989; robust z-score, replicate 2 = 1.19; robust z-score, replicate 3 = 0.0636. After knock-down of LIFR, the screen gave robust z-score, replicate 1 = 0.614; robust z-score, replicate 2 = 0.448; robust z-score, replicate 3 = 0.523. Depletion of CARD11 resulted in: robust z-score, replicate 1 = 2.05 (active); robust z-score, replicate 2 = 2.3; robust z-score, replicate 3 = 1.57. For LOC285422, the entry reads robust z-score, replicate 1 = 0.517; robust z-score, replicate 2 = 0.696; robust z-score, replicate 3 = 0.708.

For ITGB7, the values are robust z-score, replicate 1 = -0.803; robust z-score, replicate 2 = -1.96; robust z-score, replicate 3 = -1.81. For MED31, the values are robust z-score, replicate 1 = 1.39; robust z-score, replicate 2 = 0.658; robust z-score, replicate 3 = 0.803. After knock-down of MKI67, the record shows robust z-score, replicate 1 = 1.12; robust z-score, replicate 2 = -0.443; robust z-score, replicate 3 = 1.06. For TBC1D19, the entry reads robust z-score, replicate 1 = 1.77; robust z-score, replicate 2 = 1.07; robust z-score, replicate 3 = 1.11. LINC01697 gave robust z-score, replicate 1 = 0.573; robust z-score, replicate 2 = 0.304; robust z-score, replicate 3 = 0.384. LOC439970 (retired record) showed robust z-score, replicate 1 = 1.18; robust z-score, replicate 2 = 0.654; robust z-score, replicate 3 = 0.578.

After knock-down of HSD17B10, the screen gave robust z-score, replicate 1 = 0.496; robust z-score, replicate 2 = 1.21; robust z-score, replicate 3 = -0.385. TAFA1 showed robust z-score, replicate 1 = 1.62 (active); robust z-score, replicate 2 = 2.16; robust z-score, replicate 3 = 2.18. Silencing of LOC440384 (retired record) gave: robust z-score, replicate 1 = 2.63; robust z-score, replicate 2 = 1.89; robust z-score, replicate 3 = 1.58. FAM182B showed robust z-score, replicate 1 = 0.301; robust z-score, replicate 2 = 0.278; robust z-score, replicate 3 = 0.297. Silencing of OR7E86P came out at: robust z-score, replicate 1 = -1.43; robust z-score, replicate 2 = -1.77; robust z-score, replicate 3 = -1.63. Against CLDN8, the entry reads robust z-score, replicate 1 = -0.897; robust z-score, replicate 2 = -0.503; robust z-score, replicate 3 = -0.613.

ZBTB40 gave robust z-score, replicate 1 = 1.59; robust z-score, replicate 2 = 1.31; robust z-score, replicate 3 = 1.31. After knock-down of FAM9C, the screen gave robust z-score, replicate 1 = 2.26 (active); robust z-score, replicate 2 = 3.02; robust z-score, replicate 3 = 1.89. OSTC showed robust z-score, replicate 1 = -0.384; robust z-score, replicate 2 = -0.833; robust z-score, replicate 3 = -0.698. H2AC8 scored robust z-score, replicate 1 = 0.908; robust z-score, replicate 2 = 0.432; robust z-score, replicate 3 = 1.29. Against GPR15LG, the entry reads robust z-score, replicate 1 = -0.343; robust z-score, replicate 2 = 0.143; robust z-score, replicate 3 = -0.0958. With knock-down of TEX19, the record shows robust z-score, replicate 1 = 2.77 (active); robust z-score, replicate 2 = 2.73; robust z-score, replicate 3 = 1.79.

Records listed so far whose target name begins with H or h (2):
HSD17B10 → robust z-score, replicate 1 = 0.496; robust z-score, replicate 2 = 1.21; robust z-score, replicate 3 = -0.385
H2AC8 → robust z-score, replicate 1 = 0.908; robust z-score, replicate 2 = 0.432; robust z-score, replicate 3 = 1.29
